Reference: article doi:10.1101/2025.10.17.683079
No constants are given. Whether binding was seen depends on the method and setting. In cells and extracts the contact can be indirect. Here binding means that the protein was enriched with, or labelled near, the bait; the list need not be complete.

Amino acid sequences for entries named in this document (tags omitted).
UniProt Q60644: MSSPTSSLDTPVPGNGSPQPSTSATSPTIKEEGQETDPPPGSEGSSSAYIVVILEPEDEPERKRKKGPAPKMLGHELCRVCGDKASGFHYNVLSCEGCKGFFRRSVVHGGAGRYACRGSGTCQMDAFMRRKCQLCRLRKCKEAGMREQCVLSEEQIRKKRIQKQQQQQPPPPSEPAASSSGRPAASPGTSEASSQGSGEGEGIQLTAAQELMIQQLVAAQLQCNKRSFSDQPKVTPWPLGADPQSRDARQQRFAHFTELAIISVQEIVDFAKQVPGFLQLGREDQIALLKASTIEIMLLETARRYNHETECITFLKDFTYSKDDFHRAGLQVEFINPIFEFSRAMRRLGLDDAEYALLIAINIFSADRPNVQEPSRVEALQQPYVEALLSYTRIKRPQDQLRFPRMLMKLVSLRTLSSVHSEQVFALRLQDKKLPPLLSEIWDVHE

Molecular target: T1, HDAC11 (mouse (endogenous in hippocampus)) (UniProt Q91WA3)
T1 sequence: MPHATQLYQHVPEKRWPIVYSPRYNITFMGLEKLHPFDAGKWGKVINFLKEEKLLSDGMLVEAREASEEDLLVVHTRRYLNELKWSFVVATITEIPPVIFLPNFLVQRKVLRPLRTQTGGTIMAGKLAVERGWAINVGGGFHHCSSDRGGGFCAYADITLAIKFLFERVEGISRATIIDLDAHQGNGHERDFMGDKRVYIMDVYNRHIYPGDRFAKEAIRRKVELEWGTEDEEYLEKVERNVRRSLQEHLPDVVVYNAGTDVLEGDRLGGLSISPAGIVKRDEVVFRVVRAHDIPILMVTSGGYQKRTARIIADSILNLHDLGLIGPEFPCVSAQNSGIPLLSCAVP
Experiment: affinity purification with mass spectrometry

NR1H2 (also known as LXRβ) (from UniProt Q60644 1-446)
binding: binds
